The nature of one data set: in vitro. Conditions: human, Caco-2, pH 7.4.

In general, Papp A→B refers to the apparent permeability from the apical to the basolateral side of a cell layer. Read a low Papp A→B as poor permeation. For orientation: Papp B→A means the apparent permeability from the basolateral to the apical side of a cell layer. For the compound `CC(C)NCC(O)COc1ccc(CC(N)=O)cc1` (stereo not shown) [Atenolol], the “Peff A B, Range” value in the data set on Caco-2 cell monolayer (pH 7.4 Caco-2, A to B) was 0.69-1.80 ×E−6 cm/sec. Besides, in the data set on Caco-2 cell monolayer (pH 7.4 Caco-2, B to A), the “Peff B A, Range” value is recorded as 1.69-2.68 ×E−6 cm/sec. In the data set “in vitro”, the Papp A→B at 90 min, 100 μM was 1.08 ×10⁻⁶ cm/s and the Papp B→A at 90 min, 100 μM was 2.29 ×10⁻⁶ cm/s.

Values taken from patent US9475824B2, “Fused pyrimidines as inhibitors of p97 complex” (Cleave Biosciences, Inc., priority 2012, dated 2016).
